Literature values in US7447594B2, “Molecular cardiotoxicology modeling” (Ocimum Biosolutions, Inc., priority 2001, dated 2008).
For at least one compound, name, drawing or mass did not settle the structure.

Details: following a single dose; cited from earlier work

Compound: Nc1cc(N2CCCCC2)nc(N)[n+]1[O-] [minoxidil]
- hemodynamic effects: slightly increased heart rate, a fall in the mean arterial pressure, a fall in the systemic vascular resistance, and a slight increase in cardiac index
